Source: PubChem BioAssay AID504467 (National Center for Advancing Translational Sciences (NCATS), 2011)
About 7,700 (2.3%) of roughly 330,000 compounds were called active. This list was built around the results that the source calls inconclusive (neither active nor inactive); the mix of calls is not that of the screen. The call rests on the fitted dose curve; in most records, active means well fitted inhibition curve with a large enough effect; inconclusive means small, poorly fitted or top-dose-only effect, or effect the other way; inactive means flat fitted curve, though single readings scatter. Potencies of inconclusive entries are doubtful fits and often do not repeat.

Assay: qHTS screen for small molecules that inhibit ELG1-dependent DNA repair in human embryonic kidney (HEK293T) cells expressing luciferase-tagged ELG1; further: nearly all actives have a fitted effect of over 55% in size
Settings: HEK293T ELG1-luciferase reporter, luminescence, 16 h, DNA damage induced by 5-fluorouridine; series mostly up to 46.1 µM
Outline: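 Quantitative HTS, concentration-response format. 2,000 cells/well co-treated with 5-fluorouridine and compound, 16 hr in 5% CO2 at 37 °C; ONE-Glo luminescence read after 30 min.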
Potency means the concentration at half of the fitted maximal effect.

Row | SMILES | Potency
1 | CN1C(=O)N(C)c2cccc3cccc1c23 | inactive
2 | COc1ccc(CCn2c(-c3ccc(F)cc3)nc3c(c(=O)c4ccccc4n3C)c2=O)cc1OC | inactive
3 | Cc1cc(C)c2sc(C)[n+](CCCS(=O)(=O)[O-])c2c1 | inactive
4 | COCCCNC(=S)N1CCN(C(=O)c2ccco2)CC1 | inconclusive: 16.4 µM [activator, partial curve, poor fit]
5 | COc1ccc(CCN(C)C2CC(=O)N(c3ccccc3)C2=O)cc1OC (centres undefined) | inconclusive: 29.1 µM [inhibitor, single point]
6 | CN(C(=O)Cn1nnc2ccccc2c1=O)C1CCCCC1 | inconclusive: 18.3 µM [activator, partial curve, poor fit]
7 | CC1CCc2c(sc3ncn(CCO)c(=O)c23)C1 (centres undefined) | inconclusive: 18.3 µM [activator, partial curve]
8 | CC1CCC2C(=O)N(c3ccc(C(=O)Oc4cccc5cccnc45)cc3)C(=O)C2C1 (centres undefined) | inconclusive: 4.11 µM [inhibitor, partial curve, poor fit]
9 | COc1ccccc1CN(C)CC(=O)Nc1ccc(Cl)cc1F | inconclusive: 25.9 µM [inhibitor, partial curve, poor fit]
10 | Cc1ccccc1C(=O)N1CCN(c2ccc(NC(=O)c3ccccc3[N+](=O)[O-])cc2)CC1 | inconclusive: 23.1 µM [inhibitor, partial curve, poor fit]
11 | C=CCn1c2ccccc2n2nc(C)c(=O)nc12 | inactive
12 | O=C(NN=C1CCCC1)c1cc(O)cc(O)c1 | inconclusive: 32.6 µM [activator, partial curve, poor fit]
13 | O=C(Nc1sc2c(c1C(=O)O)CCC2)c1cccs1 | inconclusive: 10.3 µM [activator, partial curve]
14 | COc1ccc2oc(=O)cc(CN3CCN(Cc4ccc(OC)c(OC)c4OC)CC3)c2c1 | inactive
15 | COc1ccc(/C=N\n2nnc3ccccc32)cc1 | inconclusive: 0.411 µM [activator, partial curve]
16 | Cc1ccc(NC(=O)c2ccc(C(C)(C)C)cc2)cc1[N+](=O)[O-] | inconclusive: 11.6 µM [activator, partial curve]
17 | CC(=C/C(=O)O)/C=C/c1ccc(Cl)o1 | inactive
18 | COC(=O)c1cccc(C(=O)Nc2ccc(C)cc2)n1 | inconclusive: 13 µM [activator, partial curve]
19 | Cc1cccc(CCNC(=O)C2CCN(S(=O)(=O)N3CCOCC3)CC2)c1 | inactive
20 | O=C(NCc1ccccc1)c1cccc(COc2ccc3c(c2)CCC3)c1 | inconclusive: 0.461 µM [activator, full curve]
21 | COc1cccc(OC)c1C(=O)NC(=S)Nc1cccc(NC(=O)c2ccco2)c1 | inactive
22 | O=C(NCCc1ccc(C(F)(F)F)cc1)c1ccc(Cl)nc1 | inactive
23 | CCOC(=O)c1cc2c(ccn2C)n1CC(=O)N1CCN(c2ccccc2OC)CC1 | inconclusive: 32.6 µM [inhibitor, single point]

Row | SMILES | Potency
24 | COc1ccc(NC(=O)c2cccc(N3C(=O)c4cccc([N+](=O)[O-])c4C3=O)c2)cc1 | inconclusive: 20.6 µM [activator, partial curve, poor fit]
25 | CCc1ccc(OCc2nnc(-c3ccccc3Br)o2)cc1 | inconclusive: 23.1 µM [activator, partial curve, poor fit]
26 | Cc1cc(C)c(C#N)c(SCc2cn3ccccc3n2)n1 | inconclusive: 18.4 µM [activator, single point]
27 | Cn1c(SCC(=O)Nc2cccc(F)c2)nnc1-c1cc2ccccc2o1 | inconclusive: 20.6 µM [activator, partial curve, poor fit]
28 | COc1cccc(C(=O)Nc2cccc(NC(=O)c3cccs3)c2)c1 | inconclusive: 14.6 µM [inhibitor, partial curve]
29 | C#CCOCCOCCOCCNc1nc(N2CCN(C(=O)[C@H](Cc3ccc(O)cc3)n3cc([C@@H](N)C(C)CC)nn3)CC2)nc(N2CCN(C(=O)[C@H](Cc3cc4ccccc4[nH]3)n3cc([C@@H](N)Cc4ccc(O)cc4)nn3)CC2)n1 (some centres undefined) | inactive
30 | C/C(=N\Nc1nc2ccc(Cl)cc2o1)c1ccccc1 | inconclusive: 18.3 µM [activator, single point]
31 | Cc1c(CCC(=O)NCCCC(=O)O)c(=O)oc2cc3oc4c(c3cc12)CCCC4 | inconclusive: 20.6 µM [activator, partial curve]
32 | COc1ccc(Nc2nc3ccc(OC)cc3s2)cc1 | inconclusive: 16.4 µM [activator, partial curve]
33 | C/C(=N\NC(=O)c1ccc(OC2CCCC2)cc1)c1ccc(O)cc1 | inactive
34 | O=S(=O)(c1ccc(Br)cc1)c1nc(-c2ccccc2)oc1N1CCOCC1 | inconclusive: 18.3 µM [inhibitor, partial curve]
35 | COc1ccc(C(=O)C2CCCN(S(=O)(=O)c3ccccc3F)C2)c(C)c1 (centres undefined) | inconclusive: 29.1 µM [inhibitor, partial curve, poor fit]
36 | O=C(Oc1ccc(Br)cc1C(=S)N1CCOCC1)c1ccccc1 | inactive
37 | CCCCc1ccc(N/C(N)=N/c2nc(C)cc(C)n2)cc1 | inconclusive: 20.6 µM [inhibitor, single point]
38 | Cc1ccc(S(=O)(=O)/N=C(\N)c2ccc(F)cc2)cc1 | inconclusive: 23.1 µM [inhibitor, single point]
39 | CC1CC(C)CN(C(=O)/C(=C\c2ccccc2)c2ccccc2)C1 (centres undefined) | inactive
40 | Clc1ccc(-c2cn3ccccc3n2)cc1 | inconclusive: 0.92 µM [activator, partial curve]
41 | Oc1c(C(c2ccccn2)N2CCOCC2)ccc2cccnc12 (centres undefined) | inconclusive: 29.1 µM [inhibitor, single point]
42 | Cc1nnc(SCC(=O)c2cc(C)n(C3CC3)c2C)s1 | inconclusive: 7.31 µM [activator, partial curve]
43 | COC(=O)C1=C(C)Nc2nnnn2C1c1cccnc1 (centres undefined) | inactive
44 | CC(C)OCCCn1c(=NC(=O)c2ccncc2)c(C#N)cc2c(=O)n3ccccc3nc21 | inactive
45 | CC(C)(C)OC(=O)N1CCC(NC(=O)c2[nH]cnc2C(=O)Nc2ccc(Cl)cc2)CC1 | inconclusive: 25.9 µM [inhibitor, single point]
46 | COc1ccc(/C=C/C(=O)NC(=S)N2CCSCC2)cc1 | inconclusive: 20.6 µM [activator, single point]

Row | SMILES | Potency
47 | COC(=O)NCC(c1cccnc1)N1CCN(c2ccccc2F)CC1 (centres undefined) | inactive
48 | CN(CC(=O)Nc1ccccc1Br)C(=O)CNC(=O)c1ccco1 | inactive
49 | OCCn1c(SC2CCCCC2)nc2ccccc21 | inactive
50 | CC(=O)NNC(=S)NC(=O)c1ccccc1 | inconclusive: 23.1 µM [inhibitor, single point]
51 | O=C(/C=C/c1ccc2c(c1)OCCCO2)c1ccc2ccccc2c1O | inconclusive: 20.6 µM [activator, partial curve]
52 | C/C(=N\NC(=O)c1ccccc1O)c1ccc(NC(=O)c2ccccc2)cc1 | inconclusive: 20.6 µM [activator, partial curve]
53 | c1ccc(-c2nc(N3CCNCC3)nc3ccccc23)cc1 | inconclusive: 6.51 µM [inhibitor, partial curve, poor fit]
54 | COc1cc2c(cc1OC)CN(Cc1cc(=O)oc3c(C)c(C)ccc13)CC2 | inactive
55 | COc1ccc(Cc2nnc(NC(=O)c3ccco3)s2)cc1 | inconclusive: 11.2 µM [activator, partial curve, poor fit]
56 | CC(Sc1nnc(-c2ccco2)o1)C(=O)Nc1ccc(OC(F)F)cc1 (centres undefined) | inconclusive: 20.6 µM [activator, single point]
57 | COc1cccc(OC)c1C(=O)N1CCNCC1 | inconclusive: 1 µM [inhibitor, single point]
58 | CCOC(=O)c1cnc2ccc(C(=O)OC)cc2c1NCCCN1CCOCC1 | inactive
59 | N#Cc1sc(NCc2cccc(Cl)c2)nc1Cl | inconclusive: 32.6 µM [activator, single point]
60 | Cc1cc(C)cc(C(=O)NC(CC(N)=O)c2ccc(NC3CCCCCCCCCCC3)c([N+](=O)[O-])c2)c1 (centres undefined) | inconclusive: 0.206 µM [activator, partial curve]
61 | CCOC(=O)n1c(=O)n(Cc2ccccc2C)c2ccccc21 | inactive
62 | CC1CCN(CCc2nc3cc(NC(=O)Nc4ccccc4)ccc3n2C)CC1 | inconclusive: 20.6 µM [activator, partial curve]
63 | Cc1cc(F)ccc1S(=O)(=O)Nc1ncnc2sc3c(c12)CCC3 | inconclusive: 23.1 µM [inhibitor, partial curve, poor fit]
64 | COc1ccc([C@H]2CC(=O)C=C(c3ccc(F)cc3OCc3ccccc3)C2)cc1OC | inconclusive: 10.3 µM [inhibitor, partial curve, poor fit]
65 | COc1ccc(NC(=O)c2ccc(-c3ccc([N+](=O)[O-])cc3)o2)cc1 | inactive
66 | O=[N+]([O-])c1cc(Cl)cc(/C=N/NC(=S)Nc2ccc(S(=O)(=O)N3CCOCC3)cc2)c1O | active: 13 µM
67 | O=C(/C=C\c1ccc2c(c1)OCO2)Nc1c2c(nn1-c1ccc(Cl)cc1)CSC2 | inconclusive: 14.6 µM [inhibitor, partial curve, poor fit]
68 | COC(=O)c1cc(C(=O)c2c(C)cc3ccccn23)cc([N+](=O)[O-])c1 | inactive
69 | O=C(Nc1cccc(NC(=O)C2CC3CCCC(C2)C3=O)n1)C1CC2CCCC(C1)C2=O (centres undefined) | inconclusive: 18.4 µM [inhibitor, single point]

3 compounds picked at random from those above:
Row | SMILES | Potency
13 | O=C(Nc1sc2c(c1C(=O)O)CCC2)c1cccs1 | inconclusive: 10.3 µM [activator, partial curve]
59 | N#Cc1sc(NCc2cccc(Cl)c2)nc1Cl | inconclusive: 32.6 µM [activator, single point]
31 | Cc1c(CCC(=O)NCCCC(=O)O)c(=O)oc2cc3oc4c(c3cc12)CCCC4 | inconclusive: 20.6 µM [activator, partial curve]
